Data taken from the supplement of paper PMC10849652.
The other results are listed elsewhere or left out.

The chains behind the UniProt entries cited, without tags or fusion partners. Where a name states a change or a piece, a line headed by the entry shows the natural chain unless it says otherwise.
UniProt Q96AT1: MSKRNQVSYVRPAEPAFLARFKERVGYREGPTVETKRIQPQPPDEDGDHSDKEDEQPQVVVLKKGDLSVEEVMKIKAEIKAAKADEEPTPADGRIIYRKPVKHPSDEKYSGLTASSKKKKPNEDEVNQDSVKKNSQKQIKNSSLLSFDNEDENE
UniProt Q9H0B6: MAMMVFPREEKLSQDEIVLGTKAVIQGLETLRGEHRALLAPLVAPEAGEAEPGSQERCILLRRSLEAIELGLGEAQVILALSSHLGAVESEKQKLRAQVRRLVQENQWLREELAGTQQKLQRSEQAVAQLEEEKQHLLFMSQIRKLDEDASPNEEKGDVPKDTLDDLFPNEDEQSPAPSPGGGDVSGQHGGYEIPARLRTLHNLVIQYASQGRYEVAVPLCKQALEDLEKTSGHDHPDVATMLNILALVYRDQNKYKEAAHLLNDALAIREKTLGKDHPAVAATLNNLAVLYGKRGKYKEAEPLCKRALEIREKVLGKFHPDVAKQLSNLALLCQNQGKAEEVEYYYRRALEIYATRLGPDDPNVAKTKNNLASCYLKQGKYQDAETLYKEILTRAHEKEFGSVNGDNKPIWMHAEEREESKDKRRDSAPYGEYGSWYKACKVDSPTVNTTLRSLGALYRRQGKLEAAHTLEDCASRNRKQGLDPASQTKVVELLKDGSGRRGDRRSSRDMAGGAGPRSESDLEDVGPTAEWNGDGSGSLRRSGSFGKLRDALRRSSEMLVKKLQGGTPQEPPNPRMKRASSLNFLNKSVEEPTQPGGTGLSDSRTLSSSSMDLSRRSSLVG
UniProt Q9BVA0, whole entry, looked up: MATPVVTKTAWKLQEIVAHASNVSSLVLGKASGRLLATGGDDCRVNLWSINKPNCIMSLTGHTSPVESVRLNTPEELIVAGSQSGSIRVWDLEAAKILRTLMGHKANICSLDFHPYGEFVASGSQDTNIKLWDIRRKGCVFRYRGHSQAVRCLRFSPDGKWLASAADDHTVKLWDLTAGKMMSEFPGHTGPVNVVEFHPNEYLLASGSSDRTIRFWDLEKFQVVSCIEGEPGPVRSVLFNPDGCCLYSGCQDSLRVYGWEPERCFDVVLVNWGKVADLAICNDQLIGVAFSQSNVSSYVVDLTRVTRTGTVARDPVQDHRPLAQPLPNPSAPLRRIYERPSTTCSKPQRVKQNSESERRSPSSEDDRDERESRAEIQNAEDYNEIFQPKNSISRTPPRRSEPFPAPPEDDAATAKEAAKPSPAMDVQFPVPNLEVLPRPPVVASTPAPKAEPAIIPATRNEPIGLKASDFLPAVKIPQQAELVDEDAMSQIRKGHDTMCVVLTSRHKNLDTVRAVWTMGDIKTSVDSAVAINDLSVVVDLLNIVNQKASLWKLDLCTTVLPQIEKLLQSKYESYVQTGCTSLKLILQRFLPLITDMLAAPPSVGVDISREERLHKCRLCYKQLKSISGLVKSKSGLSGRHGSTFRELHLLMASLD
UniProt Q9H1H9: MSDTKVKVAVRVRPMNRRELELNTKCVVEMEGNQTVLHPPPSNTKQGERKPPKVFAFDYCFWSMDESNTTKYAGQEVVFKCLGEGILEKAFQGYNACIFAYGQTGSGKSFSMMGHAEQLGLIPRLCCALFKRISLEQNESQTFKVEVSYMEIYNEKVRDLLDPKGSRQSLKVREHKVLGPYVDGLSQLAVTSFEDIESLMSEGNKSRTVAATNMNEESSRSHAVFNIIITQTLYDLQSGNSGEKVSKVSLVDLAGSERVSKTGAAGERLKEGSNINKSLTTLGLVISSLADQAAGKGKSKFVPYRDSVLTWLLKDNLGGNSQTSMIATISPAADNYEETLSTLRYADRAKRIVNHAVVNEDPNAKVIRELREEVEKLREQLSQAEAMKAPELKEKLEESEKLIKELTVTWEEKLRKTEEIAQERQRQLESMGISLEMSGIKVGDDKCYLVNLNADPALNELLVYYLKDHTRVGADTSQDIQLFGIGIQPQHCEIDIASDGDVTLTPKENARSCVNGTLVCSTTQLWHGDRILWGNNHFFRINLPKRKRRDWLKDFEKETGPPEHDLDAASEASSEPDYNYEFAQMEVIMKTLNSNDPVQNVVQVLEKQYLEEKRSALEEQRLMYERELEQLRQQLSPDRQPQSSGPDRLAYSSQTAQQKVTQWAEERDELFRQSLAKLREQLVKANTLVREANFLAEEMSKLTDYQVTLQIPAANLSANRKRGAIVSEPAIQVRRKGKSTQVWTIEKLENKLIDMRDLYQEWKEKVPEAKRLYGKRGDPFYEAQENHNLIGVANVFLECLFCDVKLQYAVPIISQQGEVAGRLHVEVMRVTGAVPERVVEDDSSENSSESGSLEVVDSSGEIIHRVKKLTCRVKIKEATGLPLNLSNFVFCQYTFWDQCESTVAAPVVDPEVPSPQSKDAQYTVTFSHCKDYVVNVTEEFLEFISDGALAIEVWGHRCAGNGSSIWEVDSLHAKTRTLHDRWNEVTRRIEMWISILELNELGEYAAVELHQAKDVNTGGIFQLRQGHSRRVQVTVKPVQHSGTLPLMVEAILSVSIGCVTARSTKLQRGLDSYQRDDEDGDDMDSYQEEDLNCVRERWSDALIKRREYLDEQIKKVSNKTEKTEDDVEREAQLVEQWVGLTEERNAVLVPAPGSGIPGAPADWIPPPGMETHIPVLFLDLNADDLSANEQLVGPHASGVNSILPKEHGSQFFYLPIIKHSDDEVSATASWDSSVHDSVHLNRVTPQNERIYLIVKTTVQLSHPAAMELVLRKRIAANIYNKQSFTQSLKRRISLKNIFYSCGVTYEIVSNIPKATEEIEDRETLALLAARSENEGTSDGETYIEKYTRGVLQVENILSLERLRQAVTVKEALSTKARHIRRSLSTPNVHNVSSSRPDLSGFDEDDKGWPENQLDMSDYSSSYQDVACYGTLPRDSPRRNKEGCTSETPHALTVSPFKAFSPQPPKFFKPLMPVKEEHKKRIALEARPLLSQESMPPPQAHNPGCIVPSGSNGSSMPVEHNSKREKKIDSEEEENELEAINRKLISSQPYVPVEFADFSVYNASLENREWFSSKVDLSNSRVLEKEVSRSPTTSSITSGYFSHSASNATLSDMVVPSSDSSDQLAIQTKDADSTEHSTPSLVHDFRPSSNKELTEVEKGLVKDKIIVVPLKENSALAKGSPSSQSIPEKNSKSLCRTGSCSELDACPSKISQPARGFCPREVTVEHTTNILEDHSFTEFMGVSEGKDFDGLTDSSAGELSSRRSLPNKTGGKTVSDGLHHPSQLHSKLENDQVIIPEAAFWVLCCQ
UniProt Q9NVR0: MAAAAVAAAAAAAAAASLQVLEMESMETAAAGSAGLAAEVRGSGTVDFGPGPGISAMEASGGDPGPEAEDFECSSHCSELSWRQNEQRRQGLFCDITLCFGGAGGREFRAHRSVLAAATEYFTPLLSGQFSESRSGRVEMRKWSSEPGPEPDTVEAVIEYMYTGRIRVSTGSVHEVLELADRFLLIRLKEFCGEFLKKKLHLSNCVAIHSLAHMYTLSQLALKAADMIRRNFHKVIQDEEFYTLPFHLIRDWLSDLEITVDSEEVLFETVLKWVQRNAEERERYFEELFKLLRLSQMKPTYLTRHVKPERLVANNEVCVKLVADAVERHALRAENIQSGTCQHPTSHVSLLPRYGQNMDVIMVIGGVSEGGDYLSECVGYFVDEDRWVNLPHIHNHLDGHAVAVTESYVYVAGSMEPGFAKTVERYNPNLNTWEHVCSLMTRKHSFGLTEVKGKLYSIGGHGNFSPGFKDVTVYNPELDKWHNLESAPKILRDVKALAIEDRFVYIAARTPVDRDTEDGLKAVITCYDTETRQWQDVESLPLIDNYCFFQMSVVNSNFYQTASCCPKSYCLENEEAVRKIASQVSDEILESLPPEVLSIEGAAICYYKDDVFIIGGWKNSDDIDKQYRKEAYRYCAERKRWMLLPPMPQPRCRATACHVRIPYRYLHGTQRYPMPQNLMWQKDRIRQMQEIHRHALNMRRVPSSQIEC
UniProt Q8N5M9: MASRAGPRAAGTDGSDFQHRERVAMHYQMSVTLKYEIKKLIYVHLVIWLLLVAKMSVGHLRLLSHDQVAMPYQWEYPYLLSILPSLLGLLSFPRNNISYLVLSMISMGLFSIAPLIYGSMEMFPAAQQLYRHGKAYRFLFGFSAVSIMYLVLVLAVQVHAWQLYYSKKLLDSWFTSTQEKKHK
UniProt Q9Y6Y0: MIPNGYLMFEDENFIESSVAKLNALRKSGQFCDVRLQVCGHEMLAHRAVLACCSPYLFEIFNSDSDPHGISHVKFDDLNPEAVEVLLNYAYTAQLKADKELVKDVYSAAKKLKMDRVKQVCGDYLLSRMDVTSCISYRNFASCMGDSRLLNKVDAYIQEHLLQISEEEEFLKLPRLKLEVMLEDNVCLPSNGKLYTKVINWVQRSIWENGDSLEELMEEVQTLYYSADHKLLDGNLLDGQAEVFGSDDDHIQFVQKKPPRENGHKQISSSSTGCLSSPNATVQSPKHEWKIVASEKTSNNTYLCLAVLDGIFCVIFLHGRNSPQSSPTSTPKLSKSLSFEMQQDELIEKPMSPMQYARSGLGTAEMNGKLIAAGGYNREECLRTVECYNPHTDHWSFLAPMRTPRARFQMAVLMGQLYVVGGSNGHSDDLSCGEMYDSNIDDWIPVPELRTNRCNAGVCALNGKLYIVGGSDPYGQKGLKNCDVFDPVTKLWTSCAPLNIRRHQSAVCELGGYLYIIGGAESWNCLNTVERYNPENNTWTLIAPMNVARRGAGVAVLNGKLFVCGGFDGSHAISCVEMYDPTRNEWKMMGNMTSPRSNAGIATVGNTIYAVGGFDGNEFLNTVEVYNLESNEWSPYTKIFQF
UniProt Q9Y448: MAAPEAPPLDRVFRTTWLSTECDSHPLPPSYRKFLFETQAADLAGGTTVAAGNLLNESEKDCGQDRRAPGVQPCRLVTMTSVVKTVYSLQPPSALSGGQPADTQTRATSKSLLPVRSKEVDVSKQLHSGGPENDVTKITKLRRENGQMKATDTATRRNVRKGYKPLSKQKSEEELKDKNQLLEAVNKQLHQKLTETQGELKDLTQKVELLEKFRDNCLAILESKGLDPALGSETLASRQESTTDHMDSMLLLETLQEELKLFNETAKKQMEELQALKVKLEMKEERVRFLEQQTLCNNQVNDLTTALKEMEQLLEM
UniProt Q9NXV2: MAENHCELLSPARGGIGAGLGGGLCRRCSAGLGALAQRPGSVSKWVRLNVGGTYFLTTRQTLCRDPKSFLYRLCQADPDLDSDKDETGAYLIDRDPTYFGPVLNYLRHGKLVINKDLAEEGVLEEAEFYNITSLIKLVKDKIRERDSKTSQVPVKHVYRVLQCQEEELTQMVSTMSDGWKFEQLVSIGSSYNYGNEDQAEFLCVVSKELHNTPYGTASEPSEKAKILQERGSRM
UniProt Q8IY47: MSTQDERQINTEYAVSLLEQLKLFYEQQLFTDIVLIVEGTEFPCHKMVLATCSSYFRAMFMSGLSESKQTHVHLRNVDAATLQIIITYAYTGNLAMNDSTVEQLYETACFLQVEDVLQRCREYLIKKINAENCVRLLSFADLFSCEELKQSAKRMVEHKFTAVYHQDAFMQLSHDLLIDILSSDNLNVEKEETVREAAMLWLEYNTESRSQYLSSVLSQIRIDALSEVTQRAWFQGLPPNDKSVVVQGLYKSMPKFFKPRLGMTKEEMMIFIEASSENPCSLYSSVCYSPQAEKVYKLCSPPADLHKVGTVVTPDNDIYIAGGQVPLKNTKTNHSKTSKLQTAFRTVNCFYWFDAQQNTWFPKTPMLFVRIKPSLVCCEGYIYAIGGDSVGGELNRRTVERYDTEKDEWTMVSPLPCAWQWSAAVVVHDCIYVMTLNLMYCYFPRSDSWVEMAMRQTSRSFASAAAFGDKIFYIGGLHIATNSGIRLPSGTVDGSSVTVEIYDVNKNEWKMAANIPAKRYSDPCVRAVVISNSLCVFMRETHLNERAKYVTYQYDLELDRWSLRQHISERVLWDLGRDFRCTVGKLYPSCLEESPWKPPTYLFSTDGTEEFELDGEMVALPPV
UniProt Q9H910: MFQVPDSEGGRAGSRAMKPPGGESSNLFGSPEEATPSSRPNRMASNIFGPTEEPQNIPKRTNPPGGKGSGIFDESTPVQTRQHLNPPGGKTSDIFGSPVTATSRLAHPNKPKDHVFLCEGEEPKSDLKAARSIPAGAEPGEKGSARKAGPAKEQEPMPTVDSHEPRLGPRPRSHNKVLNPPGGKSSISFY
UniProt P17535: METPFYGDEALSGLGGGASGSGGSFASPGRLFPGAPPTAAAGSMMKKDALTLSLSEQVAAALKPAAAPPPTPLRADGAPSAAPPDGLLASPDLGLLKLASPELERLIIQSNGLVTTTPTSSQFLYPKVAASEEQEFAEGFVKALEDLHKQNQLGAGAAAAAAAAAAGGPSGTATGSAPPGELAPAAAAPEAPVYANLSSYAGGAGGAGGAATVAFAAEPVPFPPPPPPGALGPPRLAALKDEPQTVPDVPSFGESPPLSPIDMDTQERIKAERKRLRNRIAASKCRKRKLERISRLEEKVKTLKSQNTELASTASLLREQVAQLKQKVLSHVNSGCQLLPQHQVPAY

compound: C1=CC(=C(C=C1Cl)C2=NC3=NC=CN=C3C(=N2)NC4=CC=NC=C4)F; experiment: log2 fold change, soluble protein after heating vs DMSO (PISA); higher = thermal stabilisation; K562 cells, 10 uM, 30 min; active = over 0.2 and 3.5 SD of the protein, either way, in both replicates (recomputed)
Procedure, shortened: (§1)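 Values are thermal stability changes relative to control samples and are taken from duplicates. They are stated as log2 fold changes. Before quantification by TMTpro 16plex LC-MS/MS with equalised channel sums, K562 cells at 2×10^6 cells/mL were treated with 10 μM compound for 30 min, heated in aliquots for 3 min across 48°C-58°C, pooled, extracted in PBS with 0.5% NP-40 at 4°C, and centrifuged at 21,000xg for 90 min to give the soluble supernatant.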

log2 fold change, inactive:
KIAA1143 (UniProt Q96AT1) -0.149
KLC2 (UniProt Q9H0B6) 0.008
KDM8 isoform 3 (UniProt Q8N371) 0.041
KPNA2 (UniProt P52292) -0.479
KMT2D isoform 3 (UniProt O14686) -0.128
KATNB1 (UniProt Q9BVA0) -0.012
KIF13A (UniProt Q9H1H9) -0.031
KHDRBS1 (UniProt Q07666) -0.076
KHSRP (UniProt Q92945) -0.012
KPNB1 (UniProt Q14974) -0.03
KNTC1 (UniProt P50748) 0.029
KIAA0100 (UniProt Q14667) 0.009
KLHL11 (UniProt Q9NVR0) 0.028
JAGN1 (UniProt Q8N5M9) 0.039
KLC1 isoform 6 (UniProt Q07866) 0.052
IVNS1ABP (UniProt Q9Y6Y0) -0.085
KNSTRN (UniProt Q9Y448) -0.113
KIF1B isoform 4 (UniProt O60333) 0.042
KARS1 (UniProt Q15046) -0.272
KDM1A isoform 2 (UniProt O60341) 0.006
KCTD5 (UniProt Q9NXV2) 0.081
KPNA1 (UniProt P52294) -0.053
KBTBD2 (UniProt Q8IY47) 0.036
KIF3A (UniProt Q9Y496) -0.069
KSR1 (UniProt Q8IVT5) 0.044
KIAA1522 isoform 2 (UniProt Q9P206) -0.251
JPT2 isoform 3 (UniProt Q9H910) 0.048
KIAA0319L (UniProt Q8IZA0) -0.022
KDM5D isoform 3 (UniProt Q9BY66) 0.067
JMJD6 isoform 3 (UniProt Q6NYC1) 0.039
JUNB (UniProt P17275) -0.11
KBTBD4 isoform 2 (UniProt Q9NVX7) 0.083
KIF5A (UniProt Q12840) 0.028
KEL (UniProt P23276) 0.008
KIAA1191 (UniProt Q96A73) 0.017
JUND (UniProt P17535) -0.036
KIF2C (UniProt Q99661) 0.036
KDM5C (UniProt P41229) -0.045
KIAA2013 isoform 2 (UniProt Q8IYS2) 0.024
KATNA1 (UniProt O75449) -0.077

compound: C1=CC(=CC=C1C2=NC3=C(N2)C=C(C=C3)C(=O)N)OC4=CC=C(C=C4)Cl; experiment: as above
Procedure, shortened: as §1

log2 fold change, inactive:
KIAA1143 (UniProt Q96AT1) 0.024
KLC2 (UniProt Q9H0B6) -0.044
KDM8 isoform 3 (UniProt Q8N371) -0.019
KPNA2 (UniProt P52292) 0
KMT2D isoform 3 (UniProt O14686) -0.039
KATNB1 (UniProt Q9BVA0) -0.028
KIF13A (UniProt Q9H1H9) 0.017
KHDRBS1 (UniProt Q07666) 0.029
KHSRP (UniProt Q92945) 0.008
KPNB1 (UniProt Q14974) -0.036
KNTC1 (UniProt P50748) -0.039
KIAA0100 (UniProt Q14667) -0.107
KLHL11 (UniProt Q9NVR0) 0.042
JAGN1 (UniProt Q8N5M9) 0.05
KLC1 isoform 6 (UniProt Q07866) 0.002
IVNS1ABP (UniProt Q9Y6Y0) 0.073
KNSTRN (UniProt Q9Y448) -0.005
KIF1B isoform 4 (UniProt O60333) -0.059
KARS1 (UniProt Q15046) 0.053
KDM1A isoform 2 (UniProt O60341) -0.028
KCTD5 (UniProt Q9NXV2) 0.026
KPNA1 (UniProt P52294) -0.037
KBTBD2 (UniProt Q8IY47) 0.063
KIF3A (UniProt Q9Y496) -0.122
KSR1 (UniProt Q8IVT5) -0.044
KIAA1522 isoform 2 (UniProt Q9P206) -0.009
JPT2 isoform 3 (UniProt Q9H910) 0.03
KIAA0319L (UniProt Q8IZA0) 0.01
KDM5D isoform 3 (UniProt Q9BY66) -0.147
JMJD6 isoform 3 (UniProt Q6NYC1) 0.044
JUNB (UniProt P17275) 0.078
KBTBD4 isoform 2 (UniProt Q9NVX7) 0.042
KIF5A (UniProt Q12840) 0.014
KEL (UniProt P23276) 0.13
KIAA1191 (UniProt Q96A73) -0.06
JUND (UniProt P17535) 0.02
KIF2C (UniProt Q99661) 0.021
KDM5C (UniProt P41229) -0.091
KIAA2013 isoform 2 (UniProt Q8IYS2) 0.016
KATNA1 (UniProt O75449) 0.03
